{"sequences": {"note": "Amino acid sequences for entries named in this document (tags omitted). A change or cut given only in a name is not applied to a line headed by its entry.", "UniProt Q9TTY5": "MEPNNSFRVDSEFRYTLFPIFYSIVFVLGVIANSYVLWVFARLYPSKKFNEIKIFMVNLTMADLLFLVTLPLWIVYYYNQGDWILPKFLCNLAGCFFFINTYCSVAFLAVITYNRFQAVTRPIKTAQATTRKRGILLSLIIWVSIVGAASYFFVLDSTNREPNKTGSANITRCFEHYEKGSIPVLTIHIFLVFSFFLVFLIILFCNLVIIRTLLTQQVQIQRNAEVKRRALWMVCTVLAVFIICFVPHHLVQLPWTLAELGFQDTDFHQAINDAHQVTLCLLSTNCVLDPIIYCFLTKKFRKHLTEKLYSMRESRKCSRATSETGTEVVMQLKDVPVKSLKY"}, "source": "patent US10463656B2", "about": "“Methods and compositions for prevention of feedlot bovine respiratory disease” (Iowa State University Research Foundation, Inc., priority 2017, dated 2019)", "target": "T1, Bovine PAFR (Bos taurus, UniProt Q9TTY5)", "T1 construct": "expressed in transfected cells; host or cells: BHK cells, transient transfection with lipofectamine, pcDNA3.3-PAFR", "assay": "PAF-mediated intracellular calcium accumulation in BHK cells transiently expressing bovine PAFR", "assay_type": "cell-based", "conditions": "10 nM PAF; antihistamine 1-100 nM; transfected BHK cells"}
{"smiles": "CN1CCC[C@@H]1CCO[C@](C)(c1ccccc1)c1ccc(Cl)cc1", "note": "[clemastine]", "values": [{"measurement": "block of bovine PAFR function by antihistamines, PAF-mediated intracellular calcium accumulation (FIG. 12)", "value": "do not block"}]}
